Laboratory results: PubChem BioAssay AID743121 (NCATS, 2013)

Assay: 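Partners whose loss is lethal together with topoisomerase I blockade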 (primary screen)
System: MDA-MB-231 cells, a human breast cancer line
Knock-down reagent: single siRNA against human genes, 20 nM siRNA (0.8 pmol per well)
Timing: 120 h (drug added 48 h after transfection, read 72 h later)
Challenge: camptothecin 20 nM (about EC30) for 72 h; vehicle 0.1% DMSO in parallel plates
Measured: 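Cell viability by ATP luminescence (CellTiter-Glo) as % of non-targeting siRNA wells, and the log2 ratio of viability without drug over viability with camptothecin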
Direction: log2 vehicle/camptothecin viability: higher = stronger sensitisation to camptothecin; viability with camptothecin and viability without drug: higher = more viable cells
Hit rule: 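Each gene scored by redundant siRNA activity (RSA) over its individual siRNA ratios; a gene is called active at p < 0.001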
The whole screen tested about 26,000 reagents; this is a part drawn at random. Of all reagents, 167 (0.63%) got an active call. 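Calls are per gene from RSA p-values that are not deposited; an individual active-marked siRNA can sensitise only weakly.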 Unmarked entries are inactive. Reagents against one gene are numbered here.

| target gene | siRNA no. | log2 vehicle/camptothecin viability | viability with camptothecin (% of control) | viability without drug (% of control) |
| --- | --- | --- | --- | --- |
| LMO2 | 1 | -0.309 | 61.4 | 49.6 |
| LMO2 | 2 | 0.298 | 46 | 56.5 |
| LMO2 | 3 | -0.166 | 99.8 | 89 |
| LMO2 | 4 | -0.284 | 96.2 | 79 |
| MGST2 | 1 | -0.566 | 76.1 | 51.4 |
| MGST2 | 2 | -0.147 | 98.3 | 88.8 |
| MGST2 | 3 | 0.0469 | 86.9 | 89.7 |
| MGST2 | 4 | -0.212 | 90.6 | 78.2 |
| PRKAB2 | 1 | -0.0417 | 86.8 | 84.3 |
| PRKAB2 | 2 | 0.14 | 56.3 | 62 |
| PRKAB2 | 3 | 0.0271 | 86.9 | 88.6 |
| PRKAB2 | 4 | 0.129 | 85.6 | 93.6 |
| MITF | 1 | -0.202 | 70.2 | 61 |
| MITF | 2 | 0.0208 | 78.3 | 79.4 |
| MITF | 3 | 0.115 | 90.6 | 98.1 |
| MITF | 4 | -0.081 | 67.1 | 63.4 |
| CPZ | 1 | -0.508 | 89.9 | 63.2 |
| CPZ | 2 | -0.57 | 47.7 | 32.2 |
| CPZ | 3 | -0.403 | 39.3 | 29.7 |
| CPZ | 4 | -0.189 | 80.5 | 70.6 |
| UBE2B | 1 | -0.0691 | 77.6 | 74 |
| UBE2B | 2 | -0.589 | 81.7 | 54.3 |
| UBE2B | 3 | -0.246 | 63.8 | 53.8 |
| CYTH3 | 1 | -0.516 | 65.4 | 45.7 |
| CYTH3 | 2 | -0.4 | 57.6 | 43.7 |
| CYTH3 | 3 | -0.00941 | 91 | 90.4 |
| CYTH3 | 4 | -0.0826 | 101 | 95.2 |
| CYP2U1 | 1 | -0.0487 | 94.1 | 91 |
| CYP2U1 | 2 | -0.192 | 55.7 | 48.8 |
| CYP2U1 | 3 | 0.604 | 30.2 | 45.8 |
| CYP2U1 | 4 | -0.534 | 28 | 19.3 |
| LORICRIN | 1 | -0.377 | 121 | 93 |
| LORICRIN | 2 | -0.163 | 90 | 80.4 |
| LORICRIN | 3 | -0.0962 | 104 | 97.7 |
| LORICRIN | 4 | -0.126 | 127 | 117 |
| GUCY1A2 | 1 | -0.598 | 87.4 | 57.8 |
| GUCY1A2 | 2 | -0.226 | 120 | 103 |
| GUCY1A2 | 3 | -0.329 | 113 | 89.8 |
| GUCY1A2 | 4 | -0.249 | 101 | 85.1 |
| CFI | 1 | -0.248 | 58.2 | 49 |
| CFI | 2 | 0.23 | 76.4 | 89.7 |
| CFI | 3 | -0.00409 | 98.8 | 98.5 |
| CFI | 4 | -0.135 | 65.1 | 59.3 |
| GDF15 | 1 | 0.028 | 89.5 | 91.2 |
| GDF15 | 2 | -0.0815 | 103 | 97 |
| GDF15 | 3 | -0.277 | 51.1 | 42.2 |
| GDF15 | 4 | 0.0473 | 92.5 | 95.6 |
| CR2 | 1 | -0.0681 | 81.8 | 78 |
| CR2 | 2 | 0.416 | 59.2 | 79 |
| CR2 | 3 | -0.0243 | 50.6 | 49.7 |
| CR2 | 4 | -0.145 | 131 | 118 |
| PRCP | 1 | 0.00347 | 77.8 | 78 |
| PRCP | 2 | -0.201 | 49.3 | 42.9 |
| PRCP | 3 | -0.0821 | 84.8 | 80.1 |
| PRCP | 4 | -0.124 | 65.4 | 60.1 |
| OXNAD1 | 1 | 0.26 | 54.1 | 64.8 |
| OXNAD1 | 2 | -0.15 | 75 | 67.6 |
| OXNAD1 | 3 | -0.0302 | 104 | 102 |
| OXNAD1 | 4 | 0.239 | 65.4 | 77.2 |
| E2F1 | 1 | -0.422 | 64.7 | 48.3 |
| E2F1 | 2 | -0.292 | 80 | 65.3 |
| E2F1 | 3 | -3.73 | 84 | 6.34 |
| E2F1 | 4 | -0.519 | 41.9 | 29.3 |
| MMP27 | 1 | 0.122 | 22.2 | 24.1 |
| MMP27 | 2 | -0.19 | 97.2 | 85.3 |
| MMP27 | 3 | -0.485 | 71.3 | 51 |
| RHOB | 1 | -0.0188 | 48.5 | 47.8 |
| RHOB | 2 | -0.461 | 108 | 78.4 |
| RHOB | 3 | -0.205 | 66.3 | 57.5 |

Already shown: 11 of the entries above.
| target gene | siRNA no. | log2 vehicle/camptothecin viability | viability with camptothecin (% of control) | viability without drug (% of control) |
| --- | --- | --- | --- | --- |
| CR2 | 4 | -0.145 | 131 | 118 |
| PRCP | 1 | 0.00347 | 77.8 | 78 |
| PRCP | 2 | -0.201 | 49.3 | 42.9 |
| PRCP | 3 | -0.0821 | 84.8 | 80.1 |
| PRCP | 4 | -0.124 | 65.4 | 60.1 |
| OXNAD1 | 1 | 0.26 | 54.1 | 64.8 |
| OXNAD1 | 2 | -0.15 | 75 | 67.6 |
| OXNAD1 | 3 | -0.0302 | 104 | 102 |
| OXNAD1 | 4 | 0.239 | 65.4 | 77.2 |
| E2F1 | 1 | -0.422 | 64.7 | 48.3 |
| E2F1 | 2 | -0.292 | 80 | 65.3 |
